# Some of the results follow. Most entries show no effect beyond the scatter of the controls.
# Amino acid sequences for entries named in this document (tags omitted). A change or cut given only in a name is not applied to a line headed by its entry.
# UniProt Q99JH1: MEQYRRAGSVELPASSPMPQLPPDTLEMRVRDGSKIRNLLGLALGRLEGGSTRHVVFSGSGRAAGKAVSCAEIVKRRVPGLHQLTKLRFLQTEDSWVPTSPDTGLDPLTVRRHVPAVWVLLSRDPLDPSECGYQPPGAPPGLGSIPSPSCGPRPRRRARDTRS
# UniProt Q921I1, whole entry: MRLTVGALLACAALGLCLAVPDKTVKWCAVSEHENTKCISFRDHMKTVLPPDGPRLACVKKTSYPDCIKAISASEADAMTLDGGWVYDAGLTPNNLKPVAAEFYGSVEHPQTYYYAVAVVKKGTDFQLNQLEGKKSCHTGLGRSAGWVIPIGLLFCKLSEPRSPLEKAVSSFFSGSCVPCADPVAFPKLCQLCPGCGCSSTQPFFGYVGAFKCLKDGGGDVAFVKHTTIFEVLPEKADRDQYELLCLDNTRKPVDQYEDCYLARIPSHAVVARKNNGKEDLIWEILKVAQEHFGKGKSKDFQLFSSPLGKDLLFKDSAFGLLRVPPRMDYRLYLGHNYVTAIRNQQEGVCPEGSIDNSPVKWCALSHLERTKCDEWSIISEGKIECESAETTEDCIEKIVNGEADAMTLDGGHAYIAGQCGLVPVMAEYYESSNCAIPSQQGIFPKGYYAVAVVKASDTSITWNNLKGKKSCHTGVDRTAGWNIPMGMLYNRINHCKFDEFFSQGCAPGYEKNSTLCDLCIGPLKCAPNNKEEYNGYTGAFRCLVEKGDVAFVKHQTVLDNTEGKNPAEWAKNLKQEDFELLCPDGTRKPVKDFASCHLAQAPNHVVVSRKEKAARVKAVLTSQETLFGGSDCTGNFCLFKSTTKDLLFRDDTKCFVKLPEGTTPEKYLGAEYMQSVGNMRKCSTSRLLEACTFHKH
# UniProt Q99L43: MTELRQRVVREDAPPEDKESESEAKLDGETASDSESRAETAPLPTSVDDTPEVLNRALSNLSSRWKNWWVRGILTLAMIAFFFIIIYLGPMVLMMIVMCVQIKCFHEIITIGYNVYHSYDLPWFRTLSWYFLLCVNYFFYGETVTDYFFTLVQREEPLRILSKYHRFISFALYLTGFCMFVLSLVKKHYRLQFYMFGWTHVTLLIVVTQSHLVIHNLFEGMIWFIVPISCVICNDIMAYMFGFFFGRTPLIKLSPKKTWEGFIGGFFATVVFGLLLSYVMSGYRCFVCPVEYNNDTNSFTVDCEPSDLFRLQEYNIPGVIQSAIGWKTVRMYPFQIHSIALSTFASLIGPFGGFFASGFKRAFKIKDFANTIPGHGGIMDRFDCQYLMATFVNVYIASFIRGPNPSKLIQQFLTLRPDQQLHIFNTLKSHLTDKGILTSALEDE
# UniProt Q922B9: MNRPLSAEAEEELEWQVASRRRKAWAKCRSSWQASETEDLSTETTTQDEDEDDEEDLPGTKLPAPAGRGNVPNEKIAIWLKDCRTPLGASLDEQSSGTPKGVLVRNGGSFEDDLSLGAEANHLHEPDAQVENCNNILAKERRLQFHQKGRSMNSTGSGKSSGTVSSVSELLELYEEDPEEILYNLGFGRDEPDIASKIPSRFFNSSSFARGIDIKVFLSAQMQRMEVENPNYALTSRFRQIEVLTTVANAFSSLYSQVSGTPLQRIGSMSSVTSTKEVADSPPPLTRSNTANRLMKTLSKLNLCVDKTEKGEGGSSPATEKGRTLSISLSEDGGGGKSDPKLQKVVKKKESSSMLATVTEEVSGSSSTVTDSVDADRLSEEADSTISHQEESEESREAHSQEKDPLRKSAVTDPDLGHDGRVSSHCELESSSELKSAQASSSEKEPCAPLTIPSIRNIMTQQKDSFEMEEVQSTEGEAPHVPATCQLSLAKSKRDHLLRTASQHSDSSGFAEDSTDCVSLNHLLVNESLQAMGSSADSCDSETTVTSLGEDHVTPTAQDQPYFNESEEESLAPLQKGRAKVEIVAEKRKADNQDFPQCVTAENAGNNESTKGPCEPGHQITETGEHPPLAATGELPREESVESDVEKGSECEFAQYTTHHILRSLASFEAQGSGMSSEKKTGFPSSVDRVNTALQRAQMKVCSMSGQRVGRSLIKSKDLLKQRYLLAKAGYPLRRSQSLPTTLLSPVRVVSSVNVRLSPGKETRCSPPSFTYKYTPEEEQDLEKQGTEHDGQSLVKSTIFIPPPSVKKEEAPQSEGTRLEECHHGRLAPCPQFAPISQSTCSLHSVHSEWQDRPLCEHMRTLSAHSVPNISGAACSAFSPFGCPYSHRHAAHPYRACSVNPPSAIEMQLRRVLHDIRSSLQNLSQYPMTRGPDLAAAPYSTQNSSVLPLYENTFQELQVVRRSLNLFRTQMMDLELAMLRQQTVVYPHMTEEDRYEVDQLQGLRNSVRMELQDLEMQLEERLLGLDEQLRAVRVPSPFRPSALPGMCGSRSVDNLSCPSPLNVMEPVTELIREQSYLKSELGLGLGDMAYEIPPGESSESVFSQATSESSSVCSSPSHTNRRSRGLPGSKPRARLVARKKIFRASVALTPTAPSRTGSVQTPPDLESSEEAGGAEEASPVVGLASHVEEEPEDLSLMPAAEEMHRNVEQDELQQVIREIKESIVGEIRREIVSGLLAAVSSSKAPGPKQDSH
# UniProt Q99LH4: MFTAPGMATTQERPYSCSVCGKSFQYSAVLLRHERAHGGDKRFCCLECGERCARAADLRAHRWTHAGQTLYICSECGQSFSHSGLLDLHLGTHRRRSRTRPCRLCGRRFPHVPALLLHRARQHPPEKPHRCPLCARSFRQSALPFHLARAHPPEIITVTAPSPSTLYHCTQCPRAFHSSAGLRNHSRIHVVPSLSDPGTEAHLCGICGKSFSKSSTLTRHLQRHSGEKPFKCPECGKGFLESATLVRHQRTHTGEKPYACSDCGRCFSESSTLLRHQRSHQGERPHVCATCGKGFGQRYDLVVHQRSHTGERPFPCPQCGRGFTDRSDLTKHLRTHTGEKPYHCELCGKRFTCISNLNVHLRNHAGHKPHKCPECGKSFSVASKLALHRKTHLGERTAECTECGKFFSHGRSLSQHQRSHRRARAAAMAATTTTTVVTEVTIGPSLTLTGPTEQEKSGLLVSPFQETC
# UniProt Q91ZX6: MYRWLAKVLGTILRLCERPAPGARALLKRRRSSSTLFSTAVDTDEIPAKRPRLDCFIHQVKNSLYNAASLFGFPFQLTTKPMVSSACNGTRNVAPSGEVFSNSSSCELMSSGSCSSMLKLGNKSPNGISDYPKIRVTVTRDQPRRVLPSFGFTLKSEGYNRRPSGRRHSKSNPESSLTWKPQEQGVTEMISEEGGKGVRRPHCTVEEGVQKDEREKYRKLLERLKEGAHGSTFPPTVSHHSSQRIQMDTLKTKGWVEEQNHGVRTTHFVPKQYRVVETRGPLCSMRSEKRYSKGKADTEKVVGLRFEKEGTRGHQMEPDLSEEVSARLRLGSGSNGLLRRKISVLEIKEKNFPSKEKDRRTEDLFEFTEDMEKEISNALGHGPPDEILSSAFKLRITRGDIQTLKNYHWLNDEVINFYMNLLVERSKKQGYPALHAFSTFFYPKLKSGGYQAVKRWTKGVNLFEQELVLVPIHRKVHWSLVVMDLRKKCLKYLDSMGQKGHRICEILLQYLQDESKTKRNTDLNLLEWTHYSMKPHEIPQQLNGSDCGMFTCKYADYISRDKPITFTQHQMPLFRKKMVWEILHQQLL
# UniProt Q91ZZ3, whole entry: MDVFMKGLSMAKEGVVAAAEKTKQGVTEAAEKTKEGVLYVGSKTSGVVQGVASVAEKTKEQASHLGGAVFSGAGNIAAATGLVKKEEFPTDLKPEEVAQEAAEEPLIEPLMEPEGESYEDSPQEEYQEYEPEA
# UniProt Q922X9: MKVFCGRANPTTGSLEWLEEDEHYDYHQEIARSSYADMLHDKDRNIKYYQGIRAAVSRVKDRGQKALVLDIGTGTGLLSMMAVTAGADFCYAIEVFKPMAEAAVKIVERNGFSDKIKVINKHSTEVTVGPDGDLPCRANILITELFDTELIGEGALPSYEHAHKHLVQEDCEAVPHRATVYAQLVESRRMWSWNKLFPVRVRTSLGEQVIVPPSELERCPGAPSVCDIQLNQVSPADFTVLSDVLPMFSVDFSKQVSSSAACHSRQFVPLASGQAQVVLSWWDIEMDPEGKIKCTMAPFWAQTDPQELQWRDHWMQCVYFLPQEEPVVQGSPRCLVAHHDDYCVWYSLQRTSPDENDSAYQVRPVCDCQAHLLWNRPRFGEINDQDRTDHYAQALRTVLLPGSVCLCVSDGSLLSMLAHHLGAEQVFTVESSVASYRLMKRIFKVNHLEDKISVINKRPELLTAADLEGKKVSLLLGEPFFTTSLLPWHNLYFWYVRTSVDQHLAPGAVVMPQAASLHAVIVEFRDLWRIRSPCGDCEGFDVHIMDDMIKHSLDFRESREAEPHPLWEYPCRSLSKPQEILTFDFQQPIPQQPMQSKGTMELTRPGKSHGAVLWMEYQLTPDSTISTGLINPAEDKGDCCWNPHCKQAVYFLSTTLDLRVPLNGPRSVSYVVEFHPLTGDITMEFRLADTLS
# UniProt Q921I0: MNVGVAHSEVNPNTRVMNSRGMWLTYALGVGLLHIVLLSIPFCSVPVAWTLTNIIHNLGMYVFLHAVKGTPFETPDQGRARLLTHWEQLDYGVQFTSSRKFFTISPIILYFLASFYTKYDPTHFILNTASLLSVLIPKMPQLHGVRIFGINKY
# UniProt Q923B1: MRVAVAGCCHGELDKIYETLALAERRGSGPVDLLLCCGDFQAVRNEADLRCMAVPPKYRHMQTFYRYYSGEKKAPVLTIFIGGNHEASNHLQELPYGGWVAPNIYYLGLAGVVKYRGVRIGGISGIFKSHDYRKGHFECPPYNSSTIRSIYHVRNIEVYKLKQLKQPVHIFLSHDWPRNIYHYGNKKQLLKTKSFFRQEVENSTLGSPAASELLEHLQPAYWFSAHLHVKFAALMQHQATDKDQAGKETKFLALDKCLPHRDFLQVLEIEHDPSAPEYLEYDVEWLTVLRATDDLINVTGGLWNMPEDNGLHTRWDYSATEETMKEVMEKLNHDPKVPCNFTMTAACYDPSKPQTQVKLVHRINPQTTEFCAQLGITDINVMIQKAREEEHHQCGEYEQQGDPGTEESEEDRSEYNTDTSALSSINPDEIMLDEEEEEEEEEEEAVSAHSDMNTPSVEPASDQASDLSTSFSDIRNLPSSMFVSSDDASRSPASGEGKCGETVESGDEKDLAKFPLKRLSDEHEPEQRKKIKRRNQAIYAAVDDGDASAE
# UniProt Q99LG4: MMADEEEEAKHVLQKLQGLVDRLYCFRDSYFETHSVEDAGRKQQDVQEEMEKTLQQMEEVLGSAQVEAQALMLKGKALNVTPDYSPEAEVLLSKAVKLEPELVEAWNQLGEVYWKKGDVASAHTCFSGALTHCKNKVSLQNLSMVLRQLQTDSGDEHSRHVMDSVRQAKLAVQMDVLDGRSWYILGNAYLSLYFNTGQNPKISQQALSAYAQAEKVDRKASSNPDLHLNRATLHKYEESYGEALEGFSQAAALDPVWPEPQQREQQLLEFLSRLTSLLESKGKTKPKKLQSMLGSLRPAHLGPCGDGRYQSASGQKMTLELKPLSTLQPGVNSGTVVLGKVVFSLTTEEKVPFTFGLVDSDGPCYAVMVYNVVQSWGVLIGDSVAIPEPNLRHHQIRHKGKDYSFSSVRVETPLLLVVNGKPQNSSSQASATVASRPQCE
# Compound: CN[C@@H]1C[C@H]2O[C@@](C)([C@@H]1OC)n1c3ccccc3c3c4c(c5c6ccccc6n2c5c31)C(=O)NC4 [staurosporine]
# Test: log2 fold change of tryptic peptide abundance, ligand vs vehicle (limited proteolysis) (log2 ratio); higher = more trypsin-susceptible (destabilized)
# Conditions: ligand concentration: 20 uM; sample: mouse liver crude lysate; replicate design: treated separately
row,Target,log2 fold change
1,"UniProt Q99JH1 (peptide sequence: NLLGLALGR, peptide start residue: 38)",-0.317
2,"UniProt Q921I1 (peptide sequence: CFVKLPEGTTPEK, peptide start residue: 655)",0.277
3,"UniProt Q99L43 (peptide sequence: LDGETASDSESR, peptide start residue: 26)",0.222
4,"UniProt Q922B9 (peptide sequence: GSECEFAQYTTHHILR, peptide start residue: 648)",1.04
5,"UniProt Q99LH4 (peptide sequence: FCCLECGER, peptide start residue: 43)",0.101
6,"UniProt Q91ZX6 (peptide sequence: RPHCTVEEGVQKDER, peptide start residue: 200)",0.366
7,"UniProt Q91ZZ3 (peptide sequence: TSGVVQGVASVAEK, peptide start residue: 44)",0.335
8,"UniProt Q922X9 (peptide sequence: SSYADMLHDKDR, peptide start residue: 33)",-0.541
9,"UniProt Q921I0 (peptide sequence: MNVGVAHSEVNPNTR, peptide start residue: 1)",0.00673
10,"UniProt Q923B1 (peptide sequence: RRNQAIYAAVDDGDASAE, peptide start residue: 533)",-0.496
11,"UniProt Q99LG4 (peptide sequence: VSLQNLSMVLR, peptide start residue: 137)",0.175
